The supplement of paper PMC12819154, “High-throughput peptide-centric local stability assay extends protein–ligand identification to membrane proteins, tissues and bacteria” (Nature Structural & Molecular Biology, 2025)
The list shows a part of the results. Most entries show no effect beyond the scatter of the controls.

Amino acid sequences for entries named in this document (tags omitted). A change or cut given only in a name is not applied to a line headed by its entry.
UniProt Q9JJS6: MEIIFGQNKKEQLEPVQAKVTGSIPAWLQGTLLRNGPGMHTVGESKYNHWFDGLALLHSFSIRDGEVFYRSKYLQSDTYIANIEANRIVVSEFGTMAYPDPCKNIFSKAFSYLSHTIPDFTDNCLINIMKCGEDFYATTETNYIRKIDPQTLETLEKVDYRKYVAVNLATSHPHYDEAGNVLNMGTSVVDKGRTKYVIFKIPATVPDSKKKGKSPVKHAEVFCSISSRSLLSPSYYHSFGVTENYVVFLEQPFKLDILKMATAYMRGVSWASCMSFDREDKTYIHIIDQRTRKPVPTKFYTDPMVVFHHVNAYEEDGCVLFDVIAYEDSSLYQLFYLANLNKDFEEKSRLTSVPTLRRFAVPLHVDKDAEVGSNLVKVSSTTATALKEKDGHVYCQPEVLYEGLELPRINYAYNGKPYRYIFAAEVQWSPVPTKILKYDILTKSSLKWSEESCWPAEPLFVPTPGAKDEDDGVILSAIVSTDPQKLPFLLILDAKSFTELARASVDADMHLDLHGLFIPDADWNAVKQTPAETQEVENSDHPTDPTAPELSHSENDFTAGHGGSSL
UniProt Q9JKR6: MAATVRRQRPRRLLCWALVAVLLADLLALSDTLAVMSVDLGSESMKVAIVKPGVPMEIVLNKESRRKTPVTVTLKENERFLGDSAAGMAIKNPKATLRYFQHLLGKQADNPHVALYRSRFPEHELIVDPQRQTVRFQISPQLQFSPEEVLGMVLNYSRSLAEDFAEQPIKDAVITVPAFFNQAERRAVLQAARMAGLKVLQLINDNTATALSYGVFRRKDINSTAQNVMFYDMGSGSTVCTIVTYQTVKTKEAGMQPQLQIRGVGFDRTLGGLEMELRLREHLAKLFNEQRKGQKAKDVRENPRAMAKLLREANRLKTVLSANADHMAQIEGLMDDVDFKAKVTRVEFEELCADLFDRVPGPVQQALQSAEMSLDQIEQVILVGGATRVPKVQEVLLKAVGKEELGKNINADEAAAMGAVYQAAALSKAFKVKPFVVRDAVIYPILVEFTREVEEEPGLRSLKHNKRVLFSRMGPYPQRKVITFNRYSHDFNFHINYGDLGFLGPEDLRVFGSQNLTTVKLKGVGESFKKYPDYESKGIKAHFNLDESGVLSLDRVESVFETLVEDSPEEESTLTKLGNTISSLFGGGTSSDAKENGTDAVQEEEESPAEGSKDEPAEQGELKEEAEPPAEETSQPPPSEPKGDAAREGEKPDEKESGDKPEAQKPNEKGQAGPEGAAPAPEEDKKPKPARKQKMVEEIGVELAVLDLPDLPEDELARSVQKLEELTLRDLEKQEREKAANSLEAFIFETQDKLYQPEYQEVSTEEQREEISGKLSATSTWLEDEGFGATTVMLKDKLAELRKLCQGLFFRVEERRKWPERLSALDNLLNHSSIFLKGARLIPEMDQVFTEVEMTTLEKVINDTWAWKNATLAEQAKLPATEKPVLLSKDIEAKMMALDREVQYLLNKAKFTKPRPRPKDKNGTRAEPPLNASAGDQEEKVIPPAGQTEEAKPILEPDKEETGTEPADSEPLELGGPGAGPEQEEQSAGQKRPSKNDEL
UniProt Q9QY01: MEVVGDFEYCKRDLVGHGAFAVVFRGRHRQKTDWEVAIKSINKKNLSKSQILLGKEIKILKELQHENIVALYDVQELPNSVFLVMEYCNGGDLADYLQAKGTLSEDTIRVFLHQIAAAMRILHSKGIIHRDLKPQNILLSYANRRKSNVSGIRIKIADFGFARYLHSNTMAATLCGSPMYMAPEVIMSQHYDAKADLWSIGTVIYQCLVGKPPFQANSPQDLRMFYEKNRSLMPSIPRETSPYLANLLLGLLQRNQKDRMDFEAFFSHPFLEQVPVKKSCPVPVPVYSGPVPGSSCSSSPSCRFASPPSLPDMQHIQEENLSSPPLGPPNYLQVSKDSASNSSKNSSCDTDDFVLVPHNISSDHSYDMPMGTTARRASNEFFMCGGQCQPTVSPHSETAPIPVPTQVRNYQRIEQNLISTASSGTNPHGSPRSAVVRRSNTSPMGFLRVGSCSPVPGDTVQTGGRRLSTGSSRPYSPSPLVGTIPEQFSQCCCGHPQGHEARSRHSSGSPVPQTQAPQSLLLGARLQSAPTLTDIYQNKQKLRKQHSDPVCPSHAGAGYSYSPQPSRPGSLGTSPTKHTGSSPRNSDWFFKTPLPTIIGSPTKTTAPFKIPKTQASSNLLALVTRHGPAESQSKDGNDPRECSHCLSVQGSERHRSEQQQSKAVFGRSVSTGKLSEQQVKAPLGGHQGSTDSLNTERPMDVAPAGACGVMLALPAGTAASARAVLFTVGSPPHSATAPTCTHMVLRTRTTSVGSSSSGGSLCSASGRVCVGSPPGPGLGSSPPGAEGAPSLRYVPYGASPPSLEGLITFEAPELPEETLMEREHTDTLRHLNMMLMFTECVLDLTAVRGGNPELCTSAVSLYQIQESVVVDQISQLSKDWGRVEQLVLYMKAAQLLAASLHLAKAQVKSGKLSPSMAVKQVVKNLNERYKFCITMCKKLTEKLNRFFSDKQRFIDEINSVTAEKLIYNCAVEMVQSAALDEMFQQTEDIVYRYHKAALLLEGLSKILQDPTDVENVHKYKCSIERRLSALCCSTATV
UniProt Q9JI39: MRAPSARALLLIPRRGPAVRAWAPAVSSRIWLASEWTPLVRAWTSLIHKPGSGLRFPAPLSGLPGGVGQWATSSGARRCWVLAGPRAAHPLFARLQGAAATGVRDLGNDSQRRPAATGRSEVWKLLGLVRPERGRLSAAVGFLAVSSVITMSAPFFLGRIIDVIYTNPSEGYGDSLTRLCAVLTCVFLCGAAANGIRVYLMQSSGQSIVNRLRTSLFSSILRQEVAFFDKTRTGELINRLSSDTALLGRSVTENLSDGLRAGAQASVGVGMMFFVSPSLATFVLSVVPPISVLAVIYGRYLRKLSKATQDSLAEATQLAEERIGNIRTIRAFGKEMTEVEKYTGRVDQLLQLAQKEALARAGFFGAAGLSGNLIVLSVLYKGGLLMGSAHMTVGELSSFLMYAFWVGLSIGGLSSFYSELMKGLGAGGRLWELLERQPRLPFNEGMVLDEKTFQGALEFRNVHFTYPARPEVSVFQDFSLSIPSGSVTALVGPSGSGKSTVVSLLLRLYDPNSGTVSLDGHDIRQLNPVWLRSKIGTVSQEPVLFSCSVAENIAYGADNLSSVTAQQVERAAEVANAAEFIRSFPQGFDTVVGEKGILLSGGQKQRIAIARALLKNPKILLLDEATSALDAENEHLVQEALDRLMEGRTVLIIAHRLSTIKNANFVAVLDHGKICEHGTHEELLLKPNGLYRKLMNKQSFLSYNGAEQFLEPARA
UniProt Q9ESC8: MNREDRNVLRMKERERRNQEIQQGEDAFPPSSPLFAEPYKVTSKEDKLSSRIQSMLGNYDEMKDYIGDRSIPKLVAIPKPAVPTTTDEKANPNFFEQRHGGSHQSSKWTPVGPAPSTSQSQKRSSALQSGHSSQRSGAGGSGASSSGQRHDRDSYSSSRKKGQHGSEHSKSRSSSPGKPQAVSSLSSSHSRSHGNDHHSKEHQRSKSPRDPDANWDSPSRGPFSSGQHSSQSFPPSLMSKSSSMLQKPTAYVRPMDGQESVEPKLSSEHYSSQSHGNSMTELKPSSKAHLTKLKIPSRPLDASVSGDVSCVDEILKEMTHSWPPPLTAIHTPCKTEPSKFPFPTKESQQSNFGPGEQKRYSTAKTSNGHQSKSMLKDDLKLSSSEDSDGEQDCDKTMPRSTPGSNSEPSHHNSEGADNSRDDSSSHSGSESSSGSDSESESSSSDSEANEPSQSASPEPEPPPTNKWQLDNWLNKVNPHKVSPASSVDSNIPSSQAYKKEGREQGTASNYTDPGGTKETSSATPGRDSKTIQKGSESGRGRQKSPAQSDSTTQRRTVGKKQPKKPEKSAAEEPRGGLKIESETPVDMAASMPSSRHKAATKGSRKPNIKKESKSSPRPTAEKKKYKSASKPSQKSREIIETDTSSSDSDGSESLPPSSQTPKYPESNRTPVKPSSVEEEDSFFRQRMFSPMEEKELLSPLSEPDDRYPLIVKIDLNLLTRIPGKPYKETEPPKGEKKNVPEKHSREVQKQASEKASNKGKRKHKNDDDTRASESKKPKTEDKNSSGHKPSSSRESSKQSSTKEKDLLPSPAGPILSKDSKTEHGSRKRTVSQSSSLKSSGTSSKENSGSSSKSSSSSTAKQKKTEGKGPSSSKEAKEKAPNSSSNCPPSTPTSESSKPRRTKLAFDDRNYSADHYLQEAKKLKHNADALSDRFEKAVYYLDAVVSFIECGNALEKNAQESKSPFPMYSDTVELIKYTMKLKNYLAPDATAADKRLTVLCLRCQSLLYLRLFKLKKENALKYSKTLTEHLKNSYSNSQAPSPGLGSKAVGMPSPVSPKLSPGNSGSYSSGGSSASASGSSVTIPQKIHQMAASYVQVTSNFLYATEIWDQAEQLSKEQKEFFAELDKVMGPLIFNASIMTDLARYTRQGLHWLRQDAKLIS
UniProt Q9JJL3: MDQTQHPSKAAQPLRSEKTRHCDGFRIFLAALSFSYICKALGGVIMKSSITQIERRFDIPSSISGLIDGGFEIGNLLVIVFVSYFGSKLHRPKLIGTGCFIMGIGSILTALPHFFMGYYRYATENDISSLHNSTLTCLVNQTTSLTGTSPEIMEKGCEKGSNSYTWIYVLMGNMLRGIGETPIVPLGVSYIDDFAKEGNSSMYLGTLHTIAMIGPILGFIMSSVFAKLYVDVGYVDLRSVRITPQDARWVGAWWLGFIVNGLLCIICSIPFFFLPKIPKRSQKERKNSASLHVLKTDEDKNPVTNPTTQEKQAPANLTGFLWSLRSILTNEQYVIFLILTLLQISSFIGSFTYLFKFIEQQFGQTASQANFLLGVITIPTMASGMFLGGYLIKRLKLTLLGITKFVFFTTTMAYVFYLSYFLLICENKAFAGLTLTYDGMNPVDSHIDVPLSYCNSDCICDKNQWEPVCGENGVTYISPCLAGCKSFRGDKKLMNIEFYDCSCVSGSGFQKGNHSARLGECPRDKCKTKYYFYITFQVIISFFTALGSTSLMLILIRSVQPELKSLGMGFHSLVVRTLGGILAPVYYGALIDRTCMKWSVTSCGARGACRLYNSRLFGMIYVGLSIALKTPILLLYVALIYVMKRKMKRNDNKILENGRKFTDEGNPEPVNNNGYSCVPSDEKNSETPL
UniProt Q9JHJ0: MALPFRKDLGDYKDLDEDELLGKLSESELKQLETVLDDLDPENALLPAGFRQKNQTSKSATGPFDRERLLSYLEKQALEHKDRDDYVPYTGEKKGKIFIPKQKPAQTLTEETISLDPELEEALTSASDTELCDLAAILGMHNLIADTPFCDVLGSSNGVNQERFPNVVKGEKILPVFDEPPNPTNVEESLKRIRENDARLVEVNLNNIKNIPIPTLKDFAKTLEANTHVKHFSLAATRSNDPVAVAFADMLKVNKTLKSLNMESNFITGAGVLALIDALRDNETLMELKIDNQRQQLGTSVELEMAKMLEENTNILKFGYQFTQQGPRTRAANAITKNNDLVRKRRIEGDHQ
UniProt Q9JLB9, whole entry: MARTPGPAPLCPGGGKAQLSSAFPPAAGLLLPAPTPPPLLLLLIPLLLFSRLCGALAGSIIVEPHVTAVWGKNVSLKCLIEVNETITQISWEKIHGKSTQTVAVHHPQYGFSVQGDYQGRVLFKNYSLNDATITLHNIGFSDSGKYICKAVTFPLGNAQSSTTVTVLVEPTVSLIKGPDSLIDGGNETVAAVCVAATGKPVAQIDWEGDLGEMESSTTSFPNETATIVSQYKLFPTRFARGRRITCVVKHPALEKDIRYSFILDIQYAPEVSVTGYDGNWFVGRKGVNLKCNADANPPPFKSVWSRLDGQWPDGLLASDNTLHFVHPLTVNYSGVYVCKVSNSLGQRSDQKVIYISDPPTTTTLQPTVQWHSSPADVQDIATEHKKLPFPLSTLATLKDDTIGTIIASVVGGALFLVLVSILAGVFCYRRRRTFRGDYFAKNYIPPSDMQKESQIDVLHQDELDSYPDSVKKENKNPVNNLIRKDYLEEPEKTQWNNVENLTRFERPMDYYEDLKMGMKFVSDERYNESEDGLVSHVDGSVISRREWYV
UniProt Q9JLJ1, whole entry: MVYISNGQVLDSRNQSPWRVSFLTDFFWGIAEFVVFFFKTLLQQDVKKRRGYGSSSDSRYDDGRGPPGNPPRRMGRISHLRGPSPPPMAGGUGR
UniProt Q9EQ80: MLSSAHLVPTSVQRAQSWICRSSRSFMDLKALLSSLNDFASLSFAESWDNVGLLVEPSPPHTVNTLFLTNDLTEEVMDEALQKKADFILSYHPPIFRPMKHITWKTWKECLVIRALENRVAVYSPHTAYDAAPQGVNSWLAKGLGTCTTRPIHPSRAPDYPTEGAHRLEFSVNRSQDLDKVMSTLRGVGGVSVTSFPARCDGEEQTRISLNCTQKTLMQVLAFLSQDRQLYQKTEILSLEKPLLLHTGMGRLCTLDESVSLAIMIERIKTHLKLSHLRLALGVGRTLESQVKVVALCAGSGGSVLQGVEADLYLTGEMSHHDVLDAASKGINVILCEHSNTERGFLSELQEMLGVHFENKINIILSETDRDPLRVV

Compound: CN[C@@H]1C[C@H]2O[C@@](C)([C@@H]1OC)n1c3ccccc3c3c4c(c5c6ccccc6n2c5c31)C(=O)NC4 [staurosporine]
Assay: log2 fold change of pooled soluble protein (PISA), ligand vs vehicle (log2 ratio); higher = more thermally stabilized
Details: ligand concentration: 20 uM; assay format: PISA pool 52.9/55.5/58.6 C

Target: UniProt Q9QXD8
- log2 fold change of pooled soluble protein: 0.00418

Target: UniProt Q9EQG9
- log2 fold change of pooled soluble protein: 0.0128

Target: UniProt Q9JLV1
- log2 fold change of pooled soluble protein: 0.0283

Target: UniProt Q9JKN1
- log2 fold change of pooled soluble protein: 0.221

Target: UniProt Q9EPU4
- log2 fold change of pooled soluble protein: -0.235

Target: UniProt Q9JHK4
- log2 fold change of pooled soluble protein: -0.0987

Target: UniProt Q9QYC0
- log2 fold change of pooled soluble protein: 0.118

Target: UniProt Q9JLI6
- log2 fold change of pooled soluble protein: 0.105

Target: UniProt Q9JKB1
- log2 fold change of pooled soluble protein: 0.105

Target: UniProt Q9DCN1
- log2 fold change of pooled soluble protein: 0.48

Target: UniProt Q9JJS6
- log2 fold change of pooled soluble protein: -0.108

Target: UniProt Q9JHS3
- log2 fold change of pooled soluble protein: -0.0419

Target: UniProt Q9JKR6
- log2 fold change of pooled soluble protein: 0.0413

Target: UniProt Q9QY01
- log2 fold change of pooled soluble protein: 0.0257

Target: UniProt Q9JM14
- log2 fold change of pooled soluble protein: 0.362

Target: UniProt Q9EQH3
- log2 fold change of pooled soluble protein: -0.0467

Target: UniProt Q9JI39
- log2 fold change of pooled soluble protein: 0.0292

Target: UniProt Q9DCM2
- log2 fold change of pooled soluble protein: 0.406

Target: UniProt Q9JJ89
- log2 fold change of pooled soluble protein: -0.12

Target: UniProt Q9JIW9
- log2 fold change of pooled soluble protein: -0.232

Target: UniProt Q9EQJ9
- log2 fold change of pooled soluble protein: 0.0781

Target: UniProt Q9JI59
- log2 fold change of pooled soluble protein: -0.00292

Target: UniProt Q9QXN3
- log2 fold change of pooled soluble protein: 0.118

Target: UniProt Q9ERB0
- log2 fold change of pooled soluble protein: -0.0637

Target: UniProt Q9JI99
- log2 fold change of pooled soluble protein: -0.152

Target: UniProt Q9JMH9
- log2 fold change of pooled soluble protein: 0.0839

Target: UniProt Q9QXE0
- log2 fold change of pooled soluble protein: -0.0538

Target: UniProt Q9ESC8
- log2 fold change of pooled soluble protein: -0.237

Target: UniProt Q9EQ28
- log2 fold change of pooled soluble protein: 0.235

Target: UniProt Q9ERS2
- log2 fold change of pooled soluble protein: -0.144

Target: UniProt Q9JJL3
- log2 fold change of pooled soluble protein: 0.137

Target: UniProt Q9ERI5
- log2 fold change of pooled soluble protein: -0.133

Target: UniProt Q9DCL8
- log2 fold change of pooled soluble protein: 0.234

Target: UniProt Q9JHJ0
- log2 fold change of pooled soluble protein: 0.13

Target: UniProt Q9JLB9
- log2 fold change of pooled soluble protein: -0.132

Target: UniProt Q9JJX6
- log2 fold change of pooled soluble protein: -0.0113

Target: UniProt Q9EPR4
- log2 fold change of pooled soluble protein: -0.0526

Target: UniProt Q9EPJ9
- log2 fold change of pooled soluble protein: 0.133

Target: UniProt Q9JLJ1
- log2 fold change of pooled soluble protein: -0.209

Target: UniProt Q9EQ80
- log2 fold change of pooled soluble protein: 0.0322

Target: UniProt Q9QXK3
- log2 fold change of pooled soluble protein: -0.014
